These are yes or no findings as the source states them, for the method shown. In cells and extracts the contact can be indirect. Some binding calls cover weakened binding; strength is not graded here. For some of these results: Tags and fused reporters may be left off the sequences shown.
Tests used:
[1] = biological target: HA-tagged GST-POM121C (614–987) (human) (UniProt A8CG34); assay: pull-down; lysates of HEK293 cells stably expressing HA-GST fusions (25 mM Tris-HCl pH 7.4, 150 mM NaCl, 1% NP40, 5% glycerol), Glutathione-Sepharose 4B for 2 h at 4°C, five washes, blots with anti-KPNB1 and anti-GST or anti-HA
[2] = biological target: HA-tagged GST-POM121C (801–987) (human) (UniProt A8CG34); assay: as above
[3] = biological target: POM121C (human) (UniProt A8CG34); assay: pull-down; GST pull-down, POM121C with Vpr; no data shown, no conditions told
[4] = biological target: POM121C (human) (UniProt A8CG34); assay: co-IP; immunoprecipitation, POM121C with Vpr; no data shown, no conditions told

Amino acid sequences for entries named in this document (tags omitted).
UniProt Q14974: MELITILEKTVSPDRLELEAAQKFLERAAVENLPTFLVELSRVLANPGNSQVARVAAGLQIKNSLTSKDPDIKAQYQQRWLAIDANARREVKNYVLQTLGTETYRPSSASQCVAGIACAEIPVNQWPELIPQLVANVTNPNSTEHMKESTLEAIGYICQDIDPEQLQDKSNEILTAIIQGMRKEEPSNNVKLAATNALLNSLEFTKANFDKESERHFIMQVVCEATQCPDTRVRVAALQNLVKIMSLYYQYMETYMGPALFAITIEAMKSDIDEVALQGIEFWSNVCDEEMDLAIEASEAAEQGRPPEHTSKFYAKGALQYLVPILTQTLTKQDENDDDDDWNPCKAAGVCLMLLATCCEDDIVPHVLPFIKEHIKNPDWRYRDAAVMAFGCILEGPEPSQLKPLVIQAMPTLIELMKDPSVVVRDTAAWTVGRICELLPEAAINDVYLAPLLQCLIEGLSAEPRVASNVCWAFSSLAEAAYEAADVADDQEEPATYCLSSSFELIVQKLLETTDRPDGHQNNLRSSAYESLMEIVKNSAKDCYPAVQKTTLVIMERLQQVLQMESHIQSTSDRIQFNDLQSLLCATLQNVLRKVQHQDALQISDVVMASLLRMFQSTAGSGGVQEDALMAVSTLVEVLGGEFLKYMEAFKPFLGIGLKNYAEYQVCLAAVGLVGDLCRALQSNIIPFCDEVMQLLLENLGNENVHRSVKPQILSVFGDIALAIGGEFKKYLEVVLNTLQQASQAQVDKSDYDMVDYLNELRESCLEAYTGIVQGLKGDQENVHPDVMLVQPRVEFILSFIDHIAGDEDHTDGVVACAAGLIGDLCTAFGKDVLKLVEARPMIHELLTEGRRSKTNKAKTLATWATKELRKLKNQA
UniProt P12520: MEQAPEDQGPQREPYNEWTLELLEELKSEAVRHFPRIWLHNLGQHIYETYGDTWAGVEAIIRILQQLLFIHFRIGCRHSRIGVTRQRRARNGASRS

binding [1]	binding [2]	Substance	binding [3]	binding [4]
binds	binds	Importin subunit beta-1 (KPNB1) (from UniProt Q14974 1-876)		
		Vpr (from UniProt P12520 1-96)	no binding	no binding
